The list does not hold the whole screen: it is rich in T/C values a quarter to a half above the control, in often repeated tests (any T/C) and in doses without a T/C. Further doses and runs are listed elsewhere. T/C is the treated group as % of the vehicle group. Some entries give survivors of the animals treated and no T/C: the source files T/C as zero there, which appears to mark a toxic dose or a test without result, not a measured value. Some survivor counts are full or nearly so, which does not show that the dose was tolerated: survival well below the control is almost never listed, so the zero probably covers shortened survival too. Counts of survivors are from the toxicity check (mostly the fifth day) where no day follows; animals may have died later. Schedules are NCI's codes, read here as Q, the interval in days (D) or hours (H), X, the number of doses. Some entries were tested several times; the values are given in rising order. Where survival is the endpoint, the PubChem record calls one and a half times the control and up active, and a quarter to a half above the control has no call in these data; cut-offs in other NCI protocols can differ.
Test system: L1210 leukemia ip in BDF1 mice, survival T/C
Assay: NCI In Vivo Anticancer Drug Screen. Data for tumor model L1210 Leukemia (intraperitoneal) in B6D2F1 (BDF1) mice
Conditions: higher T/C = longer survival
[1] = T/C endpoint: mean survival time, dose: 400.0 mg/kg/injection, schedule: Q01DX009 (ip), vehicle: saline

**Q.** How did the T/C (T/C endpoint: mean survival time, dose: 25.0 mg/kg/injection, schedule: Q01DX009 (ip), vehicle: saline) turn out when `C=CCNC(=O)NCC=C` was run?
**A.** 111, 116, 117, 132 % of control

**Q.** And the T/C (T/C endpoint: mean survival time, dose: 25.0 mg/kg/injection, schedule: Q01DX009 (oral), vehicle: saline)?
**A.** 130 % of control

**Q.** What about the T/C (T/C endpoint: mean survival time, dose: 50.0 mg/kg/injection, schedule: Q01DX009 (ip), vehicle: saline) of the same compound?
**A.** 111, 114, 125, 126, 143 % of control

**Q.** What about the T/C (T/C endpoint: mean survival time, dose: 50.0 mg/kg/injection, schedule: Q01DX009 (oral), vehicle: saline) of the same compound?
**A.** 141 % of control

**Q.** What about the T/C (T/C endpoint: mean survival time, dose: 89.0 mg/kg/injection, schedule: Q01DX009 (ip), vehicle: saline) of the same compound?
**A.** 139 % of control

**Q.** And the T/C (T/C endpoint: mean survival time, dose: 100.0 mg/kg/injection, schedule: Q01DX009 (ip), vehicle: saline)?
**A.** 117, 121, 124, 152 % of control

**Q.** And the T/C (T/C endpoint: mean survival time, dose: 133.0 mg/kg/injection, schedule: Q01DX009 (ip), vehicle: saline)?
**A.** 143 % of control

**Q.** And the T/C (T/C endpoint: mean survival time, dose: 200.0 mg/kg/injection, schedule: Q01DX009 (ip), vehicle: saline)?
**A.** 127, 141, 156, 157, 159 % of control

**Q.** And the survivor count (T/C endpoint: mean survival time, dose: 200.0 mg/kg/injection, schedule: Q01DX009 (oral), vehicle: saline)?
**A.** 6 of 6

**Q.** What about the survivor count (T/C endpoint: mean survival time, dose: 400.0 mg/kg/injection, schedule: Q01DX001 (ip), vehicle: saline) of the same compound?
**A.** 2 of 6

**Q.** And the survivor count [1]?
**A.** 0 of 6 and 3 of 6

**Q.** And the survivor count (T/C endpoint: mean survival time, dose: 400.0 mg/kg/injection, schedule: Q01DX009 (oral), vehicle: saline)?
**A.** 4 of 6 and 6 of 6

**Q.** What about the T/C (T/C endpoint: median survival time, dose: 25.0 mg/kg/injection, schedule: Q01DX009 (ip), vehicle: saline) of the same compound?
**A.** 127 % of control

**Q.** And the T/C (T/C endpoint: median survival time, dose: 25.0 mg/kg/injection, schedule: Q01DX009 (sc), vehicle: saline)?
**A.** 133 % of control

**Q.** And the T/C (T/C endpoint: median survival time, dose: 50.0 mg/kg/injection, schedule: Q01DX009 (ip), vehicle: saline)?
**A.** 138 % of control

**Q.** What about the T/C (T/C endpoint: median survival time, dose: 50.0 mg/kg/injection, schedule: Q01DX009 (sc), vehicle: saline) of the same compound?
**A.** 133 % of control

**Q.** And the T/C (T/C endpoint: median survival time, dose: 100.0 mg/kg/injection, schedule: Q01DX009 (sc), vehicle: saline)?
**A.** 133 % of control

**Q.** And the T/C (T/C endpoint: median survival time, dose: 200.0 mg/kg/injection, schedule: Q01DX009 (ip), vehicle: saline)?
**A.** 144 % of control

**Q.** And the T/C (T/C endpoint: median survival time, dose: 200.0 mg/kg/injection, schedule: Q01DX009 (sc), vehicle: saline)?
**A.** 144 % of control

**Q.** And the survivor count (T/C endpoint: median survival time, dose: 400.0 mg/kg/injection, schedule: Q01DX001 (ip), vehicle: saline)?
**A.** 1 of 8

**Q.** What about the survivor count (T/C endpoint: median survival time, dose: 400.0 mg/kg/injection, schedule: Q01DX001 (sc), vehicle: saline) of the same compound?
**A.** 5 of 8

**Q.** What about the survivor count (T/C endpoint: median survival time, dose: 400.0 mg/kg/injection, schedule: Q01DX009 (ip), vehicle: saline) of the same compound?
**A.** 2 of 6, 3 of 6, 4 of 8

**Q.** And the survivor count (T/C endpoint: median survival time, dose: 400.0 mg/kg/injection, schedule: Q01DX009 (sc), vehicle: saline)?
**A.** 2 of 8

**Q.** And the survivor count (T/C endpoint: median survival time, dose: 400.0 mg/kg/injection, schedule: Q04DX003 (ip), vehicle: saline)?
**A.** 4 of 8

**Q.** What about the survivor count (T/C endpoint: median survival time, dose: 400.0 mg/kg/injection, schedule: Q04DX003 (sc), vehicle: saline) of the same compound?
**A.** 3 of 8

**Q.** And the survivor count (T/C endpoint: median survival time, dose: 800.0 mg/kg/injection, schedule: Q01DX001 (ip), vehicle: saline)?
**A.** 0 of 8

**Q.** And the survivor count (T/C endpoint: median survival time, dose: 800.0 mg/kg/injection, schedule: Q01DX001 (sc), vehicle: saline)?
**A.** 0 of 8

**Q.** And the survivor count (T/C endpoint: median survival time, dose: 800.0 mg/kg/injection, schedule: Q04DX003 (ip), vehicle: saline)?
**A.** 0 of 8

**Q.** And the survivor count (T/C endpoint: median survival time, dose: 800.0 mg/kg/injection, schedule: Q04DX003 (sc), vehicle: saline)?
**A.** 1 of 8

**Q.** Which results are given for `NCCC1CNCCN1.[Cl][Pd]([Cl])([Cl])[Cl]` (configuration not stated)?
**A.** survivor count (T/C endpoint: mean survival time, dose: 200.0 mg/kg/injection, schedule: Q01DX001 (ip), vehicle: DMSO): 1 of 3; survivor count (T/C endpoint: mean survival time, dose: 400.0 mg/kg/injection, schedule: Q01DX001 (ip), vehicle: DMSO): 0 of 3

**Q.** `CC1=CCC2(C)CCC(C(C)C)C2(O)CC1` (configuration not stated) was tested. Which survivor count [1] did it give?
**A.** 6 of 6

**Q.** Which survivor count (T/C endpoint: mean survival time, dose: 400.0 mg/kg/injection, schedule: Q01DX009 (ip), vehicle: Klucel (hydroxypropylcellulose) (HPC)) does the source give for `CCCCCCCCCCCCO` here?
**A.** 6 of 6

**Q.** `Clc1nc(Cl)c(Cl)[nH]1` was tested. Which survivor count (T/C endpoint: mean survival time, dose: 25.0 mg/kg/injection, schedule: Q01DX009 (ip), vehicle: saline with Tween-80) did it give?
**A.** 0 of 6

**Q.** What about the survivor count (T/C endpoint: mean survival time, dose: 100.0 mg/kg/injection, schedule: Q01DX009 (ip), vehicle: saline with Tween-80) of the same compound?
**A.** 0 of 6

**Q.** What about the survivor count (T/C endpoint: mean survival time, dose: 200.0 mg/kg/injection, schedule: Q01DX009 (ip), vehicle: saline with Tween-80) of the same compound?
**A.** 0 of 6

**Q.** And the survivor count (T/C endpoint: mean survival time, dose: 400.0 mg/kg/injection, schedule: Q01DX009 (ip), vehicle: saline with Tween-80)?
**A.** 0 of 6
